Measured values as given in PubChem BioAssay AID540276 (National Center for Advancing Translational Sciences (NCATS), 2011).
Among all 300,000 compounds or so, about 5,400 (1.8%) were called active. Inconclusive means that the source gave no clear call. Such entries were picked first, then a sample of the others. Calls follow the shape of the full dose curve; tested in HEK293 cells. Potencies beside an inconclusive call are fits to weak or partial responses and may not hold up.

Experiment: qHTS for inhibitors of binding or entry into cells for Marburg Virus
Details: Marburg virus pseudotyped entry inhibition, cell reporter; activity change, negative = inhibition: at 37.8 µM (top of the series) unless noted
% is scaled to controls: 0 for no effect and ±100 for the full control effect; potency is read from the fitted curve at half-maximal effect.

Row | SMILES | activity change, negative = inhibition | Potency
1 | COC(=O)N/N=C/c1cccnc1 | inactive: 9.13% | –
2 | Fc1ccc(CSc2ncnc3scc(-c4ccccc4)c23)cc1 | – | inconclusive: 0.0891 µM [inhibitor, full curve, poor fit]
3 | Nn1c(COc2ccc(Cl)cc2)nc2ccccc2c1=O | inactive: -24.9% | –
4 | COc1cc2c(cc1OC)CN(C1CC(=O)N(c3c(C)cccc3C)C1=O)CC2 (configuration not stated) | – | inconclusive: 1.26 µM [inhibitor, partial curve, poor fit]
5 | Cc1ccccc1NC(=O)c1ccc(CSc2ncccn2)cc1 | inactive: -0.216% | –
6 | O=C1c2ccccc2C(=O)N1OS(=O)(=O)c1ccccc1 | inactive: 1.67% | –
7 | C=CCN1C(=O)C2(CC(C)=C[C@@H](C)O2)c2c(Br)cccc21 (some centres not stated) | inactive: 26.1% [at 14.2 µM] | –
8 | O=C(O)Cn1cc(C(=O)C(F)(F)F)c2ccccc21 | – | inconclusive: 20 µM [inhibitor, partial curve, poor fit]
9 | CCc1ccc2c(c1)NC(c1ccc(C)cc1)=NC(c1cccs1)=N2 | – | inconclusive: 10 µM [activator, partial curve, poor fit]
10 | CC1=C(C(=O)OCCOc2ccccc2)C(c2ccsc2)NC(=O)N1C (configuration not stated) | – | inconclusive: 10 µM [inhibitor, partial curve, poor fit]
11 | CCOc1ccccc1C(=O)NC1CCN(Cc2ccccc2)CC1 | inactive: -25.9% | –
12 | CCCOc1ccccc1C1CC(=O)NC(C)=C1C(=O)OCC(C)C (configuration not stated) | – | inconclusive: 8.91 µM [inhibitor, single point]
13 | Cc1cccc(C(=O)Nc2cc(S(=O)(=O)N3CCOCC3)ccc2N2CCCC2)c1 | inactive: 12.9% | –
14 | O=C(c1cc(-c2ccc(O)cc2)on1)N1CCCC1 | – | active: 11.2 µM
15 | COc1ccccc1-c1ccc(Nc2cccc(C(F)(F)F)c2)nn1 | inactive: -0.352% | –
16 | O=S(=O)(c1ccc2nc(-c3ccco3)c(-c3ccco3)nc2c1)N1CCOCC1 | – | inactive
17 | Cc1ccc2nc(NC(=O)/C=C/c3ccc4c(c3)OCO4)sc2c1 | inactive: 11.9% | –
18 | O=[N+]([O-])c1c(NCCO)cc(N2CCC3(CC2)OCCO3)c2nonc12 | inactive: 3.44% | –
19 | CC(=O)Nc1ccc(SCC(=O)c2cc(C)n(Cc3cccs3)c2C)cc1 | – | inconclusive: 35.5 µM [inhibitor, single point]
20 | Cc1ccc(S(=O)(=O)N(C)c2c(C)ccc(S(=O)(=O)N3CCN(C)CC3)c2C)cc1 | inactive: 11.6% | –
21 | CNCC(=O)N(CC(C)C)c1c(N)n(CC(C)C)c(=O)[nH]c1=O | inactive: 6.77% [at 46.1 µM] | –
22 | O=C(OCc1nc2ccc(Cl)cc2n1CCO)c1ccc2c(c1)OCO2 | – | inconclusive: 10 µM [inhibitor, partial curve, poor fit]
23 | O=C(c1cccs1)c1ccccc1Cc1cccs1 | inactive: -23.6% | –
24 | CCOC(=O)c1ccc(NC(=O)c2ccccc2[N+](=O)[O-])cc1 | inactive: 15.4% | –

Entries above containing nitrogen in an aromatic ring, in the order listed:
Row | SMILES | activity change, negative = inhibition | Potency
1 | COC(=O)N/N=C/c1cccnc1 | inactive: 9.13% | –
2 | Fc1ccc(CSc2ncnc3scc(-c4ccccc4)c23)cc1 | – | inconclusive: 0.0891 µM [inhibitor, full curve, poor fit]
3 | Nn1c(COc2ccc(Cl)cc2)nc2ccccc2c1=O | inactive: -24.9% | –
5 | Cc1ccccc1NC(=O)c1ccc(CSc2ncccn2)cc1 | inactive: -0.216% | –
8 | O=C(O)Cn1cc(C(=O)C(F)(F)F)c2ccccc21 | – | inconclusive: 20 µM [inhibitor, partial curve, poor fit]
14 | O=C(c1cc(-c2ccc(O)cc2)on1)N1CCCC1 | – | active: 11.2 µM
15 | COc1ccccc1-c1ccc(Nc2cccc(C(F)(F)F)c2)nn1 | inactive: -0.352% | –
16 | O=S(=O)(c1ccc2nc(-c3ccco3)c(-c3ccco3)nc2c1)N1CCOCC1 | – | inactive
17 | Cc1ccc2nc(NC(=O)/C=C/c3ccc4c(c3)OCO4)sc2c1 | inactive: 11.9% | –
18 | O=[N+]([O-])c1c(NCCO)cc(N2CCC3(CC2)OCCO3)c2nonc12 | inactive: 3.44% | –
19 | CC(=O)Nc1ccc(SCC(=O)c2cc(C)n(Cc3cccs3)c2C)cc1 | – | inconclusive: 35.5 µM [inhibitor, single point]
21 | CNCC(=O)N(CC(C)C)c1c(N)n(CC(C)C)c(=O)[nH]c1=O | inactive: 6.77% [at 46.1 µM] | –
22 | O=C(OCc1nc2ccc(Cl)cc2n1CCO)c1ccc2c(c1)OCO2 | – | inconclusive: 10 µM [inhibitor, partial curve, poor fit]

Some of the entries above in another layout:
COc1cc2c(cc1OC)CN(C1CC(=O)N(c3c(C)cccc3C)C1=O)CC2 (configuration not stated)
  Potency: inconclusive: 1.26 µM [inhibitor, partial curve, poor fit]
CC1=C(C(=O)OCCOc2ccccc2)C(c2ccsc2)NC(=O)N1C (configuration not stated)
  Potency: inconclusive: 10 µM [inhibitor, partial curve, poor fit]

The results go on:

Row | SMILES | activity change, negative = inhibition | Potency
25 | NS(=O)(=O)c1ccc(CCNC(=S)Nc2ccc(F)cc2)cc1 | inactive: -7.53% [at 46.1 µM] | –
26 | CC(CCc1ccccc1)NC(=O)Cc1ccc(Br)cc1 (configuration not stated) | – | inconclusive: 15.8 µM [inhibitor, single point]
27 | COc1ccc(NC(=O)C/C(C)=N/NC(=O)C(=O)NC2CCCCC2)c(OC)c1 | – | inconclusive: 5.62 µM [activator, single point]
28 | O=C(CN(Cc1ccc(F)cc1)C(=O)CCC(=O)Nc1nccs1)NCc1ccccc1 | – | inconclusive: 5.62 µM [inhibitor, full curve]
29 | COc1ccc(-n2c(=O)c3ccccc3n(Cc3cccc(C)c3)c2=O)cc1OC | – | inconclusive: 35.5 µM [inhibitor, partial curve, poor fit]
30 | Nc1ccc(-c2nc3c(Cl)c(N)ccc3[nH]2)cc1 | – | inconclusive: 12.6 µM [inhibitor, partial curve, poor fit]
31 | Clc1ccccc1Cc1noc(CN2CCSCC2)n1 | inactive: 16.4% [at 46.1 µM] | –
32 | O=C(COC(=O)c1cccc(NC(=O)c2ccco2)c1)c1ccc(Br)cc1 | inactive: -16.8% | –
33 | COC(=O)Cn1ncc(N2C3CC(CC(C)(C)C3)C2C)c(Cl)c1=O (configuration not stated) | – | inconclusive: 1.26 µM [activator, single point]
34 | C=COCCn1c(-c2nonc2N)nc2ccccc21 | inactive: -28.3% | –
35 | CCCN(CC(=O)Nc1ccccc1C)C(=O)c1cccc(S(=O)(=O)N2CCc3ccccc3C2)c1 | – | inconclusive: 35.5 µM [inhibitor, single point]
36 | O=C(COC(=O)c1cccc(F)c1)NC1CC1 | – | inconclusive: 3.55 µM [inhibitor, single point]
37 | CSc1ccc(CNc2ccccn2)cc1 | – | inconclusive: 35.5 µM [inhibitor, single point]
38 | CCc1nnc(NC(=O)c2ccc(S(=O)(=O)N(C)c3ccccc3)cc2)o1 | – | inconclusive: 20.6 µM [inhibitor, partial curve]
39 | CC1(C)NC(=O)N(CC(=O)OCc2cc(=O)n3cc(Br)ccc3n2)C1=O | – | inconclusive: 1.12 µM [inhibitor, partial curve, poor fit]
40 | CCOC(=O)c1sc(-c2ccccc2)cc1NC(=O)Nc1ccccc1 | – | inconclusive: 0.708 µM [inhibitor, full curve, poor fit]
41 | CSCCC(NC(=O)COc1ccccc1)C(=O)N1CCN(c2cccc(C(F)(F)F)c2)CC1 (configuration not stated) | – | inconclusive: 22.4 µM [inhibitor, partial curve, poor fit]
42 | COc1cccc(/C=N/n2c(C)nc3ccccc32)c1OC | inactive: -3.22% | –
43 | O=C(COc1ccc2ccccc2c1)Nc1ccncc1 | inactive: -3.51% [at 46.1 µM] | –
44 | CCC(=O)N1CCN(c2ccc(Cl)cc2NC(=O)c2ccc([N+](=O)[O-])o2)CC1 | – | inconclusive: 2 µM [inhibitor, full curve]
45 | COc1cc(/C=c2\sc3n(c2=O)CCCN=3)ccc1O | inactive: 16.6% | –
46 | COc1ccccc1C(=O)Nc1ccc(C)c(S(=O)(=O)N2CCCCC2)c1 | – | active: 8.91 µM
47 | CCc1ccc(NC(=O)CN2C(=O)CCSc3ccccc32)cc1 | inactive: 0.319% [at 46.1 µM] | –
48 | O=[N+]([O-])c1cnc(Nc2ccccc2)nc1Nc1ccccc1 | – | inconclusive: 7.08 µM [activator, partial curve, poor fit]

Row | SMILES | activity change, negative = inhibition | Potency
49 | CCC(=O)NC(c1ccccc1Cl)c1c(O)ccc2ccccc12 (configuration not stated) | – | inconclusive: 35.5 µM [inhibitor, partial curve, poor fit]
50 | Cn1cc(CN2CCC(Oc3ccc(C(=O)N4CCCCC4)cc3)CC2)cn1 | – | inconclusive: 1.41 µM [inhibitor, full curve, poor fit]
51 | CC(C)(C)NCC(O)COc1ccccc1C(C)(C)C (configuration not stated) | – | inconclusive: 10.3 µM [inhibitor, partial curve, poor fit]
52 | Cn1nnnc1SCCCNCc1ccc(-c2ccc(F)c(Cl)c2)o1 | – | inconclusive: 35.5 µM [activator, single point]
53 | Cc1nc(N)nc(N(C)c2ccccc2)c1Br | – | inconclusive: 35.5 µM [inhibitor, single point]
54 | C=CCN(C(=O)c1csnn1)C(C(=O)NCc1ccccc1)c1c(F)cccc1Cl (configuration not stated) | – | inconclusive: 10 µM [inhibitor, partial curve]
55 | COc1ccccc1OCCCC(=O)Nc1ccc([N+](=O)[O-])cc1Br | – | inconclusive: 3.16 µM [inhibitor, single point]
56 | O=C(Nc1ccc2nn(-c3ccccc3)nc2c1)c1cccs1 | inactive: 19.6% | –
57 | Cc1cc(C)cc(Nc2cc(C(=O)NC3CCC(C)CC3)c3ccccc3n2)c1 (configuration not stated) | – | inconclusive: 12.6 µM [inhibitor, partial curve]
58 | CC(C)(C)c1cnnn1-c1ccc(/C=N/Nc2ccc([N+](=O)[O-])cc2)cc1 | inactive: 2.98% | –
59 | N#C/C(=C\c1cn(Cc2ccccc2F)c2ccccc12)C(=O)NCc1ccco1 | – | inconclusive: 17.8 µM [inhibitor, single point]
60 | Cc1ccc(C(=O)NCCCNC(=O)c2ccc(Cl)cc2)cn1 | inactive: 0.638% [at 46.1 µM] | –
61 | CC(=O)OC(COc1cccc(C)c1)Cn1cnc2ccccc21 (configuration not stated) | – | inconclusive: 7.08 µM [inhibitor, partial curve, poor fit]
62 | CCOC(=O)N1CCN(C(=O)CSc2nnc(-c3cc(OC)cc(OC)c3)o2)CC1 | – | inconclusive: 11.2 µM [activator, partial curve, poor fit]
63 | COc1ccc(NC(=O)COc2ccc(C)cc2)c([N+](=O)[O-])c1 | – | inconclusive: 0.631 µM [activator, full curve, poor fit]
64 | Cc1ccc(S(=O)(=O)NCC(c2ccc3c(c2)OCO3)N2CCN(c3ccccc3)CC2)cc1 (configuration not stated) | – | inconclusive: 3.98 µM [inhibitor, full curve, poor fit]
65 | C=CCn1c(SCC(=O)Nc2cccc(S(N)(=O)=O)c2)nc2sc(C)c(C)c2c1=O | – | inconclusive: 39.8 µM [inhibitor, partial curve, poor fit]
66 | C[C@]12CCC(=O)C=C1CCC1C2CC[C@@]2(C)C1CC[C@]2(C)O (some centres not stated) | – | inconclusive: 2.82 µM [inhibitor, partial curve, poor fit]
67 | N#Cc1ccc(OC(=O)C2CCN(C3=NS(=O)(=O)c4ccccc43)CC2)cc1 | – | inconclusive: 3.16 µM [activator, partial curve, poor fit]
68 | O=C(O)c1cc(-c2ccc3c(c2)OCO3)nc2ccc(Cl)cc12 | – | inconclusive: 8.91 µM [inhibitor, partial curve, poor fit]
69 | Cc1c(NS(=O)(=O)c2cccc3nsnc23)c(=O)n(-c2ccccc2)n1C | – | inconclusive: 3.16 µM [activator, partial curve, poor fit]
70 | CCN1CCN(c2ccc(N3CCN(S(=O)(=O)c4ccc(C)c([N+](=O)[O-])c4)CC3)nn2)CC1 | inactive: -7.72% | –
71 | O=C(CN1CC(=O)Nc2ccccc21)Nc1ccc(F)c(F)c1 | inactive: -7.73% [at 46.1 µM] | –
72 | CCN(CC)S(=O)(=O)c1cccc(NC(=O)CN(C)Cc2cccc(OC)c2)c1 | – | active: 23.1 µM
